Earlier results on 1 compound are cited in patent publication US20120122966A1, “USE OF ORGANIC DYES AS ANALGESIC AGENTS” (priority 2009, published 2012).

For this data set the following is noted: in vivo; cited from earlier work.

As for `CN1CC[C@]23c4c5ccc(O)c4O[C@H]2[C@@H](O)C=C[C@H]3[C@H]1C5` [morphine], the “Acute toxicity LD50” value is 170 mg/kg.
